In PubChem BioAssay AID1671190 (National Center for Advancing Translational Sciences (NCATS), 2021):
Out of some 580,000 compounds screened, about 6,100 (1.1%) were called active. Where a call stands in place of a potency, no number is given. This list was built around the results that the source calls inconclusive (neither active nor inactive); the mix of calls is not that of the screen. Calls follow the shape of the dose curve; as a rule, active = well fitted inhibition curve with a large enough effect; inconclusive = small, poorly fitted or top-dose-only effect, or another doubt; inactive = no such curve, though single readings can be large or run the other way. Potencies beside an inconclusive call are fits to weak or partial responses and may not hold up.

Chains of the proteins cited; added tags and fusions are not shown. Lines headed by an entry give the natural chain unless they say otherwise; changes in a name come on top.
UniProt P18054: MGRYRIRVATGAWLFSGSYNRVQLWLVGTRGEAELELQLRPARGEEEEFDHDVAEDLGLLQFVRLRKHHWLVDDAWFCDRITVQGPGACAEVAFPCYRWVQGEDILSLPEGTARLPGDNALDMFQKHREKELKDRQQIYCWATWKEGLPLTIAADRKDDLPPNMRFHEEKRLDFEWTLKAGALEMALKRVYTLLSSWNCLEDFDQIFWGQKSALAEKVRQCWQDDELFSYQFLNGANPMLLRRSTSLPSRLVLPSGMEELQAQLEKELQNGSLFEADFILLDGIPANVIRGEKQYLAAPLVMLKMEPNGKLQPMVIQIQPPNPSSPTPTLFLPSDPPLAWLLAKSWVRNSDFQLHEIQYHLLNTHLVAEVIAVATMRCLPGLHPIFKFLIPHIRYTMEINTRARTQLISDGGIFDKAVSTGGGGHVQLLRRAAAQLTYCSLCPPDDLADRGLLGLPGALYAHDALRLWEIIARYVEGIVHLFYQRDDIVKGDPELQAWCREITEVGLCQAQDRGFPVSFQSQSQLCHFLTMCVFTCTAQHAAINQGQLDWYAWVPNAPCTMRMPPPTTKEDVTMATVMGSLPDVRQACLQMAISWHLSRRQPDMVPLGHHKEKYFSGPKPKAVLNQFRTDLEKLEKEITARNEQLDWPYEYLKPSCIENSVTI

target: Polyunsaturated fatty acid lipoxygenase ALOX12 (Homo sapiens) (UniProt P18054); experiment: Primary qHTS assay for inhibitors of human arachidonate 12S-lipoxygenase (ALOX12): Round 2; details: purified 12hLO, xylenol orange hydroperoxide absorbance; series mostly up to 108 µM
Outline: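 Hydroperoxide product was detected by ferrous iron/xylenol orange as the 573 to 405 nm absorbance ratio. Arachidonic acid at 40 uM (final) was turned over for 30 min at room temperature by 150 nM human 12hLO, pH 7.0 Hepes buffer, after 15 min compound preincubation.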
Potency is read from the fitted curve at half-maximal effect.

| SMILES | Potency |
| --- | --- |
| Cc1[nH]c2ccccc2c1C(=O)CN1C(=O)CC2(CCCCC2)C1=O | inactive |
| CC(=O)N1N=C(c2c(-c3ccccc3)c3cc(Cl)ccc3n(C)c2=O)CC1c1cccs1 (stereo unspecified) | inconclusive: 56.2 µM [inhibitor, partial curve, poor fit] |
| COc1cccc(N2[C@@H](CC(=O)O)c3cc(C(F)(F)F)ccc3S2(=O)=O)c1 | inconclusive: 44.7 µM [inhibitor, partial curve] |
| COc1cccc(-c2ccn[nH]2)c1 | inconclusive: 10 µM [inhibitor, full curve, poor fit] |
| Cc1ccc(NC(=O)CC2Sc3ccccc3NC2=O)c(Br)c1 (stereo unspecified) | inactive |
| CN1C(=S)SC(N(O)C(=O)Nc2cccc3ccccc23)C1(C)C (stereo unspecified) | inconclusive: 22.4 µM [inhibitor, single point] |
| O=C(O)c1c2c(nc3ccc(S(=O)(=O)N4CCC(C(=O)NCc5ccccc5)CC4)cc13)CCCC2 | inactive |
| O=C1c2ccccc2C(=O)N1CCCCN(C(=O)c1ccc([N+](=O)[O-])cc1)c1ccc(Cl)cc1 | inactive |
| O=C(NCCc1c[nH]c2ccccc12)c1cnc2c(c1)N([S+](=O)([O-])c1cccnc1)CCC2 | inactive |
| CN1CCN(CCCNC(=O)C(=O)Nc2ccc3cc[nH]c3c2)CC1 | inactive |
| COC(=O)c1ccc(CNC(=O)CCl)cc1 | inconclusive: 39.8 µM [inhibitor, partial curve, poor fit] |
| C=C(C)Cn1c(SCC(=O)Nc2cccc(Cl)c2)nc2sc3c(c2c1=O)CCCC3 | inactive |
| CCOc1ccc2ccccc2c1CNCC(O)c1ccccc1 (stereo unspecified) | inactive |
| COc1ccc(NC(=O)COc2ccc(N(C)S(=O)(=O)c3ccc(C)cc3)cc2)cc1 | inactive |
| O=C(O)C1CC2(CCN(C(=O)Cc3ccc4c(c3)OCO4)CC2)CN1 (stereo unspecified) | inconclusive: 3.55 µM [inhibitor, full curve] |
| COc1cc(OC)cc(C(=O)N2CCCC(n3cc(-c4noc(C)n4)nn3)C2)c1 (stereo unspecified) | inactive |
| COc1ccc(S(=O)(=O)N2CCOCC2)cc1NC(=O)CCCSc1ccccc1 | inconclusive: 56.2 µM [inhibitor, partial curve, poor fit] |
| Cc1c(C(=O)c2ccccc2)c(=O)n(C)c(=O)n1C | inactive |
| Cc1ccc(N(C(=O)Cn2nnc3ccccc32)C(C(=O)NCc2ccccc2)c2ccccn2)cc1 (stereo unspecified) | inconclusive: 79.4 µM [inhibitor, partial curve, poor fit] |
| CCOC(=O)c1c(S(=O)(=O)N2CCCC2)nn(C)c1C | active: 14.1 µM |
| O=C(Nc1cccc(N=Cc2cc(Cl)cc(Br)c2O)c1)c1ccco1 | inconclusive: 0.708 µM [inhibitor, full curve, poor fit] |

As entered above.
Under Potency, Cc1c(C(=O)c2ccccc2)c(=O)n(C)c(=O)n1C shows inactive
Under Potency, Cc1ccc(N(C(=O)Cn2nnc3ccccc32)C(C(=O)NCc2ccccc2)c2ccccn2)cc1 (stereo unspecified) shows inconclusive: 79.4 µM [inhibitor, partial curve, poor fit]
